Test system: phosphorylation of serine 10 on Histone H3 (Aurora A substrate) in MDA-MB-468 breast cancer cells

SMILES: CCOC(=O)c1ccc(Nc2nc(Cl)c(Cl)c(Nc3ccccc3C(=O)O)n2)cc1.Cl [Compound 3t, N^4-(2-Carboxyphenyl)-N^2-(4-ethoxycarbonylphenyl)-5,6-dichloropyrimidine-2,4-diamine hydrochloride]
- activity in whole / intact cells: poor activity in intact cells

From patent publication US9249124B2 (priority 2011, dated 2016)
